Results published in PMC9368491.

Sequences of proteins named here, by UniProt entry; tags and fusion partners are left off.
UniProt P49023: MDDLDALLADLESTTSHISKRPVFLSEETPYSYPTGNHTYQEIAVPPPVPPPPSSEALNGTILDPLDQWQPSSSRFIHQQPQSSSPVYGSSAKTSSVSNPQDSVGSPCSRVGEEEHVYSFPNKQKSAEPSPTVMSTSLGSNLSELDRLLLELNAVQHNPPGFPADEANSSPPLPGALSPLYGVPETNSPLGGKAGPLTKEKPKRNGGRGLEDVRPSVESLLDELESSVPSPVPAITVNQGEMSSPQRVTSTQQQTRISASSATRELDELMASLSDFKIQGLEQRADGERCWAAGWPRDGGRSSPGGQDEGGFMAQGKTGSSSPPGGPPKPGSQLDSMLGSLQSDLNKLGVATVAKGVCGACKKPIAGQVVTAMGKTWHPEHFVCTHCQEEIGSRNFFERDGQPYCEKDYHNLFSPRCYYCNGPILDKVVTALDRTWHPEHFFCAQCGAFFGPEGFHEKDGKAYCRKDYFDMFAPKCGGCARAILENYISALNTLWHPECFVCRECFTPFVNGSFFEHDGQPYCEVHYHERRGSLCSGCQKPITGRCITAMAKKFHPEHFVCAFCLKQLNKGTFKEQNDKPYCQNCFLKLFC
UniProt Q05397: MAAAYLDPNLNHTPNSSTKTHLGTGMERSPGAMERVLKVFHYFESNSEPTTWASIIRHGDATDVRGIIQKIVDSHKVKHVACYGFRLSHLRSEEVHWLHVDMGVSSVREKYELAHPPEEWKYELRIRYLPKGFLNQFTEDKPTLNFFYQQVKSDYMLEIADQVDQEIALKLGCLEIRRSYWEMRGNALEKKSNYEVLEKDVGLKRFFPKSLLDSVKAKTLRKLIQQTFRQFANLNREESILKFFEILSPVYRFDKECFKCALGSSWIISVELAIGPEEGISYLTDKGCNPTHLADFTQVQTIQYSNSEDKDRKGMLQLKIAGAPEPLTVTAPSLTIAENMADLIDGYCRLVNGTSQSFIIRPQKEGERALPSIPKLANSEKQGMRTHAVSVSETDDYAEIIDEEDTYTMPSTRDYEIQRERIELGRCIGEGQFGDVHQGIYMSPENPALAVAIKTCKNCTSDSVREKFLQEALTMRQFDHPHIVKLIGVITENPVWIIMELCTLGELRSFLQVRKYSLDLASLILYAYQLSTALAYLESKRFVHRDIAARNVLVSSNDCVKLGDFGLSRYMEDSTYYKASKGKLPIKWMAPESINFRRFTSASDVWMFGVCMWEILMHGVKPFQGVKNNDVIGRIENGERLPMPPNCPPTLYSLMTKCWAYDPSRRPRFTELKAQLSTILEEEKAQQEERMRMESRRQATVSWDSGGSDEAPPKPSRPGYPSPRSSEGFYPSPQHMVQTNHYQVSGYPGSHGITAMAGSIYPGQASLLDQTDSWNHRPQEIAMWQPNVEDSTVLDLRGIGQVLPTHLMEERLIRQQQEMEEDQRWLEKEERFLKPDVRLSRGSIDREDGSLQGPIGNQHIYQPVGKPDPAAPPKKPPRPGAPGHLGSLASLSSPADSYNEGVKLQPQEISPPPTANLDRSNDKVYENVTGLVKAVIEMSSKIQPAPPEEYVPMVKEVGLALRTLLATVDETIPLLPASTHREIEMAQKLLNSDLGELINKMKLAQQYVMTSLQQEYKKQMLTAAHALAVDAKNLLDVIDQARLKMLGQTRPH
UniProt P15924: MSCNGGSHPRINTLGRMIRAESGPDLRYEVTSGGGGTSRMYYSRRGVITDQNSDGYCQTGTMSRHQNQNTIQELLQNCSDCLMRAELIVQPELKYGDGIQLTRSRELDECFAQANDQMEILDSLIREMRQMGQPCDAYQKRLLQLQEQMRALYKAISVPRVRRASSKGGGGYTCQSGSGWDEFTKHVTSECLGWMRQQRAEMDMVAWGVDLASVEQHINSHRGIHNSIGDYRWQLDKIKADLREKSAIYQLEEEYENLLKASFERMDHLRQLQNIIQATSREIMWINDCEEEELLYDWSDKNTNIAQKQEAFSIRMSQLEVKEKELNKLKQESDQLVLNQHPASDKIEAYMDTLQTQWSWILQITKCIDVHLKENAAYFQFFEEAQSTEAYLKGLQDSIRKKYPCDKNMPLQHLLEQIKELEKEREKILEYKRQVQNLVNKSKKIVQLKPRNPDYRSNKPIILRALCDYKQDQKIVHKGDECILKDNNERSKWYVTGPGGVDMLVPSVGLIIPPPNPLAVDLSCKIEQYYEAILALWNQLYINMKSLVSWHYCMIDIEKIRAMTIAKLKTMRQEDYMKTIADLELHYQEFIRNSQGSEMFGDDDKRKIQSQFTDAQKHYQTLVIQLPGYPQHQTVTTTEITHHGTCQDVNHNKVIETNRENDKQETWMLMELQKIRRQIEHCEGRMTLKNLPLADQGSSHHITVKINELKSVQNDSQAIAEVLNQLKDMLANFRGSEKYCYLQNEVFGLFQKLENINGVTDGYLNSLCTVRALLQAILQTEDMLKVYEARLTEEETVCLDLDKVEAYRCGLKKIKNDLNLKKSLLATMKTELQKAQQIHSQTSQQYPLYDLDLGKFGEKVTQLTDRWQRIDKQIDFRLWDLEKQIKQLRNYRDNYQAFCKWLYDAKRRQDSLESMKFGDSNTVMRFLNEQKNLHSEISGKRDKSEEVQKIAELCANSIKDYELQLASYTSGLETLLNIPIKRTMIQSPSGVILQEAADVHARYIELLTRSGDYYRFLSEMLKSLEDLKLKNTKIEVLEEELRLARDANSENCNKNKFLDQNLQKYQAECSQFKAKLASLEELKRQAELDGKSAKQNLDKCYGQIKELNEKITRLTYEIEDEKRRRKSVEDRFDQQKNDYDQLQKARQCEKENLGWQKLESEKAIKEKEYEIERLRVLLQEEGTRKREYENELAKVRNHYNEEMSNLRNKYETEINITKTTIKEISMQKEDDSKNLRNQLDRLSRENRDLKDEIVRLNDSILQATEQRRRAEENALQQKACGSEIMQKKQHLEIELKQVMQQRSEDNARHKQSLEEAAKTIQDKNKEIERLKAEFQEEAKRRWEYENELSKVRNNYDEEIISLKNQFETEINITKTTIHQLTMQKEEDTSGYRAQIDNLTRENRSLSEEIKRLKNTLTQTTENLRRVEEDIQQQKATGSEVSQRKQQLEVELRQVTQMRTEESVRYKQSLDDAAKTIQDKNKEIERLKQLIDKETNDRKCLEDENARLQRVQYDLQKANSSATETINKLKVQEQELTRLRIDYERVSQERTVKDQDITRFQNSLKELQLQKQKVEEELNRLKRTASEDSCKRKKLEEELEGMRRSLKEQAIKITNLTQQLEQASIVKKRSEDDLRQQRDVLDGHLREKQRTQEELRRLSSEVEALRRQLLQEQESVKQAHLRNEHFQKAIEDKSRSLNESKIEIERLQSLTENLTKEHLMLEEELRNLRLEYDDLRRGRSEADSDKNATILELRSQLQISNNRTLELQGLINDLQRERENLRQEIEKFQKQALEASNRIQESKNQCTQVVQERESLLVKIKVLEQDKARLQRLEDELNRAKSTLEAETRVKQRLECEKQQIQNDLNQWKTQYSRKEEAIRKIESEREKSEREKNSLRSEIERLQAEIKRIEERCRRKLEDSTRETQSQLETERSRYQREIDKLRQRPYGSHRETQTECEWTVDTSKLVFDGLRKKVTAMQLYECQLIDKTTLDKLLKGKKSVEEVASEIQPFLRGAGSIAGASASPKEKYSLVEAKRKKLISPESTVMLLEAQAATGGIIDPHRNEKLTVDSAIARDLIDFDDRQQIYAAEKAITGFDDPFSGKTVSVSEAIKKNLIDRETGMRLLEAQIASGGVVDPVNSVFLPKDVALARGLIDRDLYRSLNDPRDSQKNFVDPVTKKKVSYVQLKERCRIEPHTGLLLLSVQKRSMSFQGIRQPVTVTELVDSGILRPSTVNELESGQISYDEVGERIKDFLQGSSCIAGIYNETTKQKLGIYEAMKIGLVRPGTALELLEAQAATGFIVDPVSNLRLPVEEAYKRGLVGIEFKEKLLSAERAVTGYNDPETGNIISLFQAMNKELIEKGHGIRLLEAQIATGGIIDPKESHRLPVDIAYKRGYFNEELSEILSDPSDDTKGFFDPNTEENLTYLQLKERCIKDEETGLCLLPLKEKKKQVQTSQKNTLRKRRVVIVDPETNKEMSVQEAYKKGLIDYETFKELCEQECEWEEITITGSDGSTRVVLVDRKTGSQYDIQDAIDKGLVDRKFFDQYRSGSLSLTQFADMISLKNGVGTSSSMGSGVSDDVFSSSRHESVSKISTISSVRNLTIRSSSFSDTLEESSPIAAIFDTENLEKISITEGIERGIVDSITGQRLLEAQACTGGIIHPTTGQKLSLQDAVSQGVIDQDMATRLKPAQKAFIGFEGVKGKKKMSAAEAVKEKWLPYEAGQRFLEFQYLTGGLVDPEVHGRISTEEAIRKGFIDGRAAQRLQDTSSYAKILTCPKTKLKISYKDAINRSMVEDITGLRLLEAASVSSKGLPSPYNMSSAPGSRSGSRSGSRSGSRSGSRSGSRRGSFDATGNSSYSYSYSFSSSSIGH

T1: β-catenin (human (endogenous in MDA-MB-231)), P35222
T1 chain: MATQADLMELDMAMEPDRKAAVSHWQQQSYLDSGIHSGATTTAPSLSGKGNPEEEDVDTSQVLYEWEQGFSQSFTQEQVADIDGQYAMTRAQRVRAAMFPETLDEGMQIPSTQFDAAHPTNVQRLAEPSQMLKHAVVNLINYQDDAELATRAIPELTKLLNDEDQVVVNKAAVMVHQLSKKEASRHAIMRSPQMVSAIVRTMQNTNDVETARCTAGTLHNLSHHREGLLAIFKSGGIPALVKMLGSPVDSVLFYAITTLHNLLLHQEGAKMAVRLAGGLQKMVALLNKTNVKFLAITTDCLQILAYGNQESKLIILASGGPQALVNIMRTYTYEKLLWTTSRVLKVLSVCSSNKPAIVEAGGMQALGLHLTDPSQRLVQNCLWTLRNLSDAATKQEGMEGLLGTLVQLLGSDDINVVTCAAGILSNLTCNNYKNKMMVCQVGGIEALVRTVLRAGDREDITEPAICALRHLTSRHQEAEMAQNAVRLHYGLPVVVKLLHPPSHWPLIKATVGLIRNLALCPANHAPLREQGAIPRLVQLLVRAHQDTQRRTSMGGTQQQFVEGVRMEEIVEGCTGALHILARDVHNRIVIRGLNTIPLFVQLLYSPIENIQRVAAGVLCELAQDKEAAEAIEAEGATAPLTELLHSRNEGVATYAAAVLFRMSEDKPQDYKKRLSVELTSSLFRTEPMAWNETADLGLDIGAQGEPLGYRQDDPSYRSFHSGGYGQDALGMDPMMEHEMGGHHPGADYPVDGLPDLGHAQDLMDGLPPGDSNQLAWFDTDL


Key:
[1] = target: β-catenin (human (endogenous in MDA-MB-231)) (UniProt P35222); assay: affinity purification with mass spectrometry; MDA-MB-231 cells treated with DMSO or 50 μM NS1643; lysate incubated overnight at 4 °C with anti-β-catenin antibody crosslinked to Protein A/G magnetic beads; eluate TMT6plex labelled, LC-MS/MS; protein intensity normalised to β-catenin intensity
[2] = target: T1, β-catenin (human (endogenous in …)); assay: as above; conditions: remark: other sources report otherwise

| binding [1] | binding [2] | Molecule |
| --- | --- | --- |
| binds | – | paxillin (from UniProt P49023 1-591) |
| binds | – | focal adhesion kinase (FAK) (from UniProt Q05397 1-1052) |
| binds | – | desmoplakin (from UniProt P15924 1-2871) |
| – | binds | desmoglein-2, Q14126 50-1118 (protein) AWITAPVALREGEDLSKKNPIAKIHSDLAEERGLKITYKYTGKGITEPPFGIFVFNKDTGELNVTSILDREETPFFLLTGYALDARGNNVEKPLELRIKVLDINDNEPVFTQDVFVGSVEELSAAHTLVMKINATDADEPNTLNSKISYRIVSLEPAYPPVFYLNKDTGEIYTTSVTLDREEHSSYTLTVEARDGNGEVTDKPVKQAQVQIRILDVNDNIPVVENKVLEGMVEENQVNVEVTRIKVFDADEIGSDNWLANFTFASGNEGGYFHIETDAQTNEGIVTLIKEVDYEEMKNLDFSVIVANKAAFHKSIRSKYKPTPIPIKVKVKNVKEGIHFKSSVISIYVSESMDRSSKGQIIGNFQAFDEDTGLPAHARYVKLEDRDNWISVDSVTSEIKLAKLPDFESRYVQNGTYTVKIVAISEDYPRKTITGTVLINVEDINDNCPTLIEPVQTICHDAEYVNVTAEDLDGHPNSGPFSFSVIDKPPGMAEKWKIARQESTSVLLQQSEKKLGRSEIQFLISDNQGFSCPEKQVLTLTVCECLHGSGCREAQHDSYVGLGPAAIALMILAFLLLLLVPLLLLMCHCGKGAKGFTPIPGTIEMLHPWNNEGAPPEDKVVPSFLPVDQGGSLVGRNGVGGMAKEATMKGSSSASIVKGQHEMSEMDGRWEEHRSLLSGRATQFTGATGAIMTTETTKTARATGASRDMAGAQAAAVALNEEFLRNYFTDKAASYTEEDENHTAKDCLLVYSQEETESLNASIGCCSFIEGELDDRFLDDLGLKFKTLAEVCLGQKIDINKEIEQRQKPATETSMNTASHSLCEQTMVNSENTYSSGSSFPVPKSLQEANAEKVTQEIVTERSVSSRQAQKVATPLPDPMASRNVIATETSYVTGSTMPPTTVILGPSQPQSLIVTERVYAPASTLVDQPYANEGTVVVTERVIQPHGGGSNPLEGTQHLQDVPYVMVRERESFLAPSSGVQPTLAMPNIAVGQNVTVTERVLAPASTLQSSYQIPTENSMTARNTTVSGAGVPGPLPDFGLEESGHSNSTITTSSTRVTKHSTVQHSYS |

No constants are given. Whether binding was seen depends on the method and setting. Binding seen in cells or lysates may run through a third protein. Here binding means that the protein was enriched with, or labelled near, the bait; the list need not be complete.
